Data as given in the supplement of paper PMC10849652.
The other results are listed elsewhere or left out.

Amino acid sequences for entries named in this document (tags omitted). A change or cut given only in a name is not applied to a line headed by its entry.
UniProt Q96FZ2: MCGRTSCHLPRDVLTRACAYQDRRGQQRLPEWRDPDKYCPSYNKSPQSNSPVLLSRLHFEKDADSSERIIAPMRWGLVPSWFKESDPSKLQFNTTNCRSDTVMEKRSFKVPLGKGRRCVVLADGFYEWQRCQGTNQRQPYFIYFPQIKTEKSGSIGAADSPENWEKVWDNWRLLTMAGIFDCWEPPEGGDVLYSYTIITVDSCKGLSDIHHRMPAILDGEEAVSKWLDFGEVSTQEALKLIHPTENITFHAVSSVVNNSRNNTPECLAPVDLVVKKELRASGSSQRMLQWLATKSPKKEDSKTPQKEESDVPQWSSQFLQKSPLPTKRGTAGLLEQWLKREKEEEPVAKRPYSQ
UniProt Q9UGU5: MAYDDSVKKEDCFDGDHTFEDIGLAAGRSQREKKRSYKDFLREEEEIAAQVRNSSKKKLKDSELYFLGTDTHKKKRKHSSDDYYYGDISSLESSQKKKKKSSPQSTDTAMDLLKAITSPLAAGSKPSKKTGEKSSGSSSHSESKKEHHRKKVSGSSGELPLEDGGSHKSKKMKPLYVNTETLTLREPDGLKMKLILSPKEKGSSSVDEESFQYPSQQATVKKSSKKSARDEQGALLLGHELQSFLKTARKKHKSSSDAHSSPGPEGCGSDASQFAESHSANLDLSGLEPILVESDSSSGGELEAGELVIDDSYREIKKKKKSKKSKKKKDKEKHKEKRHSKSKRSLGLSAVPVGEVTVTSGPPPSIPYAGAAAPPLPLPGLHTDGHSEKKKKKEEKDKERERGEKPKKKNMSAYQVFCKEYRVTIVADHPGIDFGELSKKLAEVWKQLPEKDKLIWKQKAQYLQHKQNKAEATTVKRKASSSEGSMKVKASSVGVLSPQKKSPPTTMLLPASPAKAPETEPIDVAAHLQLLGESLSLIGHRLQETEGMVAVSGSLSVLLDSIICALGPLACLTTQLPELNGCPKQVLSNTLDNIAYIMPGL
UniProt Q9NSC5: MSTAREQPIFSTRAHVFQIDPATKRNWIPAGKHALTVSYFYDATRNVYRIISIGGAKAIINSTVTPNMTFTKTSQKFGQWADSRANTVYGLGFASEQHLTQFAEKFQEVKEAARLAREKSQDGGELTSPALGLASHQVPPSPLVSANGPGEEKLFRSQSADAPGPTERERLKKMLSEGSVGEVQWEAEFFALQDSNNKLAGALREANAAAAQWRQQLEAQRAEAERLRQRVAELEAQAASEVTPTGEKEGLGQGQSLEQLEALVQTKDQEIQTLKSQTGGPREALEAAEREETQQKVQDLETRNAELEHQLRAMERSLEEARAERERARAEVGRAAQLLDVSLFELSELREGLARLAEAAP
UniProt P41134: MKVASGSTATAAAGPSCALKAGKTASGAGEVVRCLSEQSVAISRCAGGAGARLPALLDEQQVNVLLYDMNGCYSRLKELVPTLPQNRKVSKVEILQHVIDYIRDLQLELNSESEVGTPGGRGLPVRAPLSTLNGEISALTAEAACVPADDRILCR
UniProt Q96ED9: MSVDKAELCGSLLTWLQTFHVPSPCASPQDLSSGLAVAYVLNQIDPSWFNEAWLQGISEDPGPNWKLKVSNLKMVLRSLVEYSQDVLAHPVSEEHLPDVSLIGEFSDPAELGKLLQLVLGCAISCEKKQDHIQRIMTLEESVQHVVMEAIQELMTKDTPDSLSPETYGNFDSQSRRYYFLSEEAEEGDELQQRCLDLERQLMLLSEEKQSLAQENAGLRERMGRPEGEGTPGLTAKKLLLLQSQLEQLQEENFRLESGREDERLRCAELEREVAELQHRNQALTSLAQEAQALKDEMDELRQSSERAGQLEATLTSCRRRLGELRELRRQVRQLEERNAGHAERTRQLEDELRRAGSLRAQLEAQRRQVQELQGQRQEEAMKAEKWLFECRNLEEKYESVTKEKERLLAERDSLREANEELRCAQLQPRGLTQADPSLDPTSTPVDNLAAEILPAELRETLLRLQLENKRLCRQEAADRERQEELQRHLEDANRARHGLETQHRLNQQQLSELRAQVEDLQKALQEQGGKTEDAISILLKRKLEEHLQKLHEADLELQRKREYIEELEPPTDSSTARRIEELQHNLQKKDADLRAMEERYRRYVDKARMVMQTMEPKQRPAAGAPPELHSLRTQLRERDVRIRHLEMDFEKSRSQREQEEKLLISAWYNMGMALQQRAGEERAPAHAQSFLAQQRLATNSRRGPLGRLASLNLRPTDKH
UniProt Q7Z6Z7, whole entry, looked up: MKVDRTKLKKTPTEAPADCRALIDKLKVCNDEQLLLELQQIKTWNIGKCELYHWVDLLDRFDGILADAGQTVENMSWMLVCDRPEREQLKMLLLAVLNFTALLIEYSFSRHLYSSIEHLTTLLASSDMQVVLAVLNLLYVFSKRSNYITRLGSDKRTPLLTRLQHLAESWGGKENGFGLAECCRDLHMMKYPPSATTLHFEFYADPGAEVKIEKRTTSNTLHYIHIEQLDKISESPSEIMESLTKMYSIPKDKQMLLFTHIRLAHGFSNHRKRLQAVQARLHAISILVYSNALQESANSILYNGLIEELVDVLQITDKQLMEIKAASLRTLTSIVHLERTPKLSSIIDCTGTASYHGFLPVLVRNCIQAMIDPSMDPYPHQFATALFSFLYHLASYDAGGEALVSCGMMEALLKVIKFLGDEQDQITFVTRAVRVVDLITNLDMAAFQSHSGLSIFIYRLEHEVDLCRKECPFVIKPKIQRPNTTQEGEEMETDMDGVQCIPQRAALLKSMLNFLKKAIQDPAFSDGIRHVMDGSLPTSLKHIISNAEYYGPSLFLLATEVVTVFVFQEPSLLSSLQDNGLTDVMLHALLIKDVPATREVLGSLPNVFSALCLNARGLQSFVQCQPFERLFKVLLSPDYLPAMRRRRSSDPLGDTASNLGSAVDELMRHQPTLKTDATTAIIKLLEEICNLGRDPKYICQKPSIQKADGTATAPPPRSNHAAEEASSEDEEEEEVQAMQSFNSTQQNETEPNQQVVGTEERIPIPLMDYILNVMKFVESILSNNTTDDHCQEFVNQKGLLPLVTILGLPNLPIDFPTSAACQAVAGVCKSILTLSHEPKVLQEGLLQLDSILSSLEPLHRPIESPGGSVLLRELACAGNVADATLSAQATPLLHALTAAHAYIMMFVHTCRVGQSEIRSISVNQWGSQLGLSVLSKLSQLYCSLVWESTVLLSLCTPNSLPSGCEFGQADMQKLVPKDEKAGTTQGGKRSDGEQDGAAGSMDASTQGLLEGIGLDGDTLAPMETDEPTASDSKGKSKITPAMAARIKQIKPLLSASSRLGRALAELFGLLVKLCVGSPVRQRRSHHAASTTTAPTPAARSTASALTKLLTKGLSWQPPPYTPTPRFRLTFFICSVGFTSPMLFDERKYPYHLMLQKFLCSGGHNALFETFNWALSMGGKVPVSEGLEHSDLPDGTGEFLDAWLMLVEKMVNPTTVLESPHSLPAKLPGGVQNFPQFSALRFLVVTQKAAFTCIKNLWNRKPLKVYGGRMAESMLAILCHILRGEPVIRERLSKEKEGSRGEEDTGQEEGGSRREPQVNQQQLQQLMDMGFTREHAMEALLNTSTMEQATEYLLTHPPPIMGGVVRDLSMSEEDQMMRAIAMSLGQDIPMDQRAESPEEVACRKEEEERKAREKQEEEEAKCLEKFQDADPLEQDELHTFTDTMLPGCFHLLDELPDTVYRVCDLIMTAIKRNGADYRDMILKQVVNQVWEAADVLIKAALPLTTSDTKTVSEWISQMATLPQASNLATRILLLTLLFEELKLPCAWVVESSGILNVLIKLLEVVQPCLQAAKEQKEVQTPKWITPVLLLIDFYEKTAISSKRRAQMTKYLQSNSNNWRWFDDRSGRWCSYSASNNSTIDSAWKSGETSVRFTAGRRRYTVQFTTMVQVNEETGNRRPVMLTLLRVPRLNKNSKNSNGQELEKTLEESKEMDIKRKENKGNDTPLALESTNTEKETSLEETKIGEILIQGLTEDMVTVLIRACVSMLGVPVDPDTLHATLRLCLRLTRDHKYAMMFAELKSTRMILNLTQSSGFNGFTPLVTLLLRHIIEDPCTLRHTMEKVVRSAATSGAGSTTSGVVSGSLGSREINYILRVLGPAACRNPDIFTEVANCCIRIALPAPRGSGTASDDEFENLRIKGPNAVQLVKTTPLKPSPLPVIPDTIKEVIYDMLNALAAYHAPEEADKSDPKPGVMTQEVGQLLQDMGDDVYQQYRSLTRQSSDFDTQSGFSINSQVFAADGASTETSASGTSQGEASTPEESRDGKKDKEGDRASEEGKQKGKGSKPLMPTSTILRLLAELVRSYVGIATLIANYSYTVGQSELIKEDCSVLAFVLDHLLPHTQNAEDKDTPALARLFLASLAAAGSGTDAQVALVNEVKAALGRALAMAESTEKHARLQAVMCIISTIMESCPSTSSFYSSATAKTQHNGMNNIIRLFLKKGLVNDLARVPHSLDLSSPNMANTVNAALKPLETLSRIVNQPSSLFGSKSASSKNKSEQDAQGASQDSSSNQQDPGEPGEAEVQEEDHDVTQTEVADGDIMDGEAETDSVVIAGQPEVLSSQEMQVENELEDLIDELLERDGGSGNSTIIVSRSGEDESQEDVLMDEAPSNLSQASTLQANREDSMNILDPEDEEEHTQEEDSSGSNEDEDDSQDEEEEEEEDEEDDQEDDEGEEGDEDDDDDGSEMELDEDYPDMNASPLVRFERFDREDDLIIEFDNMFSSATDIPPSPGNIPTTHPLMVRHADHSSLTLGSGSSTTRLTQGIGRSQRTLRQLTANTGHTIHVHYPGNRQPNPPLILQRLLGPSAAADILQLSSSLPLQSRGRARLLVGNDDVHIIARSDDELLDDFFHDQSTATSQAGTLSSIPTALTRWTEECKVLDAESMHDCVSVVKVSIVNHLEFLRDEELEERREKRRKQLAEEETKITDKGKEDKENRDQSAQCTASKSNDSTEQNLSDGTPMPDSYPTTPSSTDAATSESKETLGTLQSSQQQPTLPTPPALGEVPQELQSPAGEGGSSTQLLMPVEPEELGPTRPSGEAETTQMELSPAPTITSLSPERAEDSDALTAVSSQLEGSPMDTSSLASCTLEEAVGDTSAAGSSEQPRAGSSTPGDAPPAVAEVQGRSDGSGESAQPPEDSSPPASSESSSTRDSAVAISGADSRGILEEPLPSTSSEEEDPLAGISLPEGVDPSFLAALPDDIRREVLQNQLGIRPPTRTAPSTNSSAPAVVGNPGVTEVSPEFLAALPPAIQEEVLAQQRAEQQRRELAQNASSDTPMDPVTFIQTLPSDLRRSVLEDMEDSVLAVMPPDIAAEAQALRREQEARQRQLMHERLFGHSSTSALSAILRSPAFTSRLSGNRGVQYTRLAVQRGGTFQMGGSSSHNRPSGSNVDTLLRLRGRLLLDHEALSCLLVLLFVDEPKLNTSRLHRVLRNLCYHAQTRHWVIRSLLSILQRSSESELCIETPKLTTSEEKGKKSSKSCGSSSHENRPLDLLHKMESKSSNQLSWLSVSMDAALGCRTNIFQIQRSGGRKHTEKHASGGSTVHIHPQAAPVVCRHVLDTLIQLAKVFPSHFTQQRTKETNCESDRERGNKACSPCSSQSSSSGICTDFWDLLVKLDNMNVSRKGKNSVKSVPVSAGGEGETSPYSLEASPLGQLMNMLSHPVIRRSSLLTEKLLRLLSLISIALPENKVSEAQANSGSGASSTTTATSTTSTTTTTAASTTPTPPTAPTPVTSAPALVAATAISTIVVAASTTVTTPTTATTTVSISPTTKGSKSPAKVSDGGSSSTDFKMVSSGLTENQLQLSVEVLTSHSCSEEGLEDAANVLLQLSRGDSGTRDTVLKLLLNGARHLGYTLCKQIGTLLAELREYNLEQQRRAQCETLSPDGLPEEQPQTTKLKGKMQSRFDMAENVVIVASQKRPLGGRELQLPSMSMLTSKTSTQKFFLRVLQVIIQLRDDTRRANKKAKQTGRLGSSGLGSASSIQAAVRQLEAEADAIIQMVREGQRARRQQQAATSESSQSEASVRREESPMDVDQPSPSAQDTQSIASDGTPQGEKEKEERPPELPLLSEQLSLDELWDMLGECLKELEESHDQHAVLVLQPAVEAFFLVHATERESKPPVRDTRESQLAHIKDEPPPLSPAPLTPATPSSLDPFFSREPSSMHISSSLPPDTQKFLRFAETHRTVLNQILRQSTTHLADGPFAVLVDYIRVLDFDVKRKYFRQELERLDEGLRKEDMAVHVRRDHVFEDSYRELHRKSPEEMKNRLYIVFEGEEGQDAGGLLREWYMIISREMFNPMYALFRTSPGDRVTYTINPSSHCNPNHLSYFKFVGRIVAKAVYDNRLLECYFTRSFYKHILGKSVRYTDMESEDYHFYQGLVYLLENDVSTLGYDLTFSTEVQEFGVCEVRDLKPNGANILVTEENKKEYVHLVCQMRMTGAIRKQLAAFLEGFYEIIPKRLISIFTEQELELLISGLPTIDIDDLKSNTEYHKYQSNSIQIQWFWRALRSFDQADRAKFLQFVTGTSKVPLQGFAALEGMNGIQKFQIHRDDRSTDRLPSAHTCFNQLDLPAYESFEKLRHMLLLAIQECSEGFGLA

Experiments:
Test in all cases: log2 fold change, soluble protein after heating vs DMSO (PISA); higher = thermal stabilisation; K562 cells, 10 uM, 30 min; active = over 0.2 and 3.5 SD of the protein, either way, in both replicates (recomputed)
filanesib = compound: CON(C)C(=O)N1N=C(c2cc(F)ccc2F)S[C@@]1(CCCN)c1ccccc1 [filanesib]
Outline: (§1)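 For each measurement, 10 μM compound was applied for 30 min to K562 cells at 2×10^6 cells/mL. Aliquots were heated for 3 min across 48°C-58°C, pooled, and extracted in PBS with 0.5% NP-40 at 4°C; the supernatant after 21,000xg for 90 min was soluble protein. This was quantified by TMTpro 16plex LC-MS/MS with channel sums equalised, and thermal stability was reported relative to control samples from duplicates, on a log2 fold-change scale.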

zotarolimus = compound: CO[C@H]1C[C@@H]2CC[C@@H](C)[C@@](O)(O2)C(=O)C(=O)N2CCCC[C@H]2C(=O)O[C@H]([C@H](C)C[C@@H]2CC[C@H](n3cnnn3)[C@H](OC)C2)CC(=O)[C@H](C)/C=C(\C)[C@@H](O)[C@@H](OC)C(=O)[C@H](C)C[C@H](C)/C=C/C=C/C=C/1C [zotarolimus]
Outline: as §1

idasanutlin = compound: COc1cc(C(=O)O)ccc1NC(=O)[C@@H]1N[C@@H](CC(C)(C)C)[C@](C#N)(c2ccc(Cl)cc2F)[C@H]1c1cccc(Cl)c1F [idasanutlin]
Outline: as §1

alisertib = compound: COc1cc(Nc2ncc3c(n2)-c2ccc(Cl)cc2C(c2c(F)cccc2OC)=NC3)ccc1C(=O)O [alisertib]
Outline: as §1

[1] = compound: COc1cc2nc(-c3cc(F)ccc3O)nc(N[C@@H]3CNC[C@H]3C(C)(C)O)c2cc1OC
Outline: as §1

[2] = compound: COc1cccc2cc(-c3nc([C@H]4CC[C@H](C(=O)O)CC4)n4ncnc(N)c34)[nH]c12
Outline: as §1

lapatinib = compound: CS(=O)(=O)CCNCc1ccc(-c2ccc3ncnc(Nc4ccc(OCc5cccc(F)c5)c(Cl)c4)c3c2)o1 [lapatinib]
Outline: as §1

pictilisib = compound: CS(=O)(=O)N1CCN(Cc2cc3nc(-c4cccc5[nH]ncc45)nc(N4CCOCC4)c3s2)CC1 [pictilisib]
Outline: as §1

[3] = compound: CS(=O)(=O)c1ccc(-c2cnc(N)c(C(=O)Nc3ccccc3)n2)cc1
Outline: as §1

[4] = compound: C[C@@H]1COCCN1C2=NC(=NC(=C2)C3(CC3)S(=O)(=O)C)C4=C5C=CNC5=CC=C4
Outline: as §1

[5] = compound: C[C@H](C1=CC=C(C=C1)C(=O)NC2=C3C=CNC3=NC=C2)N
Outline: as §1

gandotinib = compound: Cc1cc(Nc2cc(CN3CCOCC3)c3nc(C)c(Cc4ccc(Cl)cc4F)n3n2)n[nH]1 [gandotinib]
Outline: as §1

duvelisib = compound: C[C@H](Nc1ncnc2nc[nH]c12)c1cc2cccc(Cl)c2c(=O)n1-c1ccccc1 [duvelisib]
Outline: as §1

[6] = compound: Cc1cc(SCc2sc(-c3ccc(C(F)(F)F)cc3)nc2C)ccc1OCC(=O)O
Outline: as §1

gefitinib = compound: COc1cc2ncnc(Nc3ccc(F)c(Cl)c3)c2cc1OCCCN1CCOCC1 [gefitinib]
Outline: as §1

tozasertib = compound: Cc1cc(Nc2cc(N3CCN(C)CC3)nc(Sc3ccc(NC(=O)C4CC4)cc3)n2)n[nH]1 [tozasertib]
Outline: as §1

ispinesib = compound: Cc1ccc(C(=O)N(CCCN)[C@@H](c2nc3cc(Cl)ccc3c(=O)n2Cc2ccccc2)C(C)C)cc1 [ispinesib]
Outline: as §1

[7] = compound: COC1=CC=C(C=C1)CN2C=CC3=C2C=C(C=C3)C(=O)NO
Outline: as §1

crizotinib = compound: C[C@@H](Oc1cc(-c2cnn(C3CCNCC3)c2)cnc1N)c1c(Cl)ccc(F)c1Cl [crizotinib]
Outline: as §1

doramapimod = compound: Cc1ccc(-n2nc(C(C)(C)C)cc2NC(=O)Nc2ccc(OCCN3CCOCC3)c3ccccc23)cc1 [doramapimod]
Outline: as §1

Measured: log2 fold change

HTD2 (UniProt P86397)
inactive: filanesib 0.062 | zotarolimus 0.086 | idasanutlin -0.012 | alisertib -0.003 | [1] 0.036 | [2] 0.026 | lapatinib 0.018 | pictilisib -0.024 | [3] 0.026 | [4] 0.392 | [5] -0.297 | gandotinib 0.122

HPF1 (UniProt Q9NWY4)
inactive: [4] -0.119 | duvelisib -0.119 | [6] -0.054

HMCES (UniProt Q96FZ2)
inactive: filanesib 0.046 | idasanutlin 0.033 | alisertib 0.231 | [1] 0.082 | gefitinib 0.081 | [2] 0.209 | lapatinib -0.082 | [3] 0.094 | [4] 0.203 | duvelisib 0.202 | tozasertib -0.077 | [6] 0.12 | ispinesib -0.029

HMBS (UniProt F5H0P4)
inactive: alisertib 1.56 | [2] -0.2

HTR1F (UniProt P30939)
inactive: [7] -0.036 | zotarolimus -0.031 | idasanutlin -0.006 | pictilisib 0.125 | crizotinib -0.028 | [5] -0.014 | gandotinib -0.329 | doramapimod -0.129

HMGXB4 (UniProt Q9UGU5)
inactive: zotarolimus -0.107 | [1] 0.255 | lapatinib -0.199 | [4] 0.081 | [5] 0.074

HIST2H2AA3 (UniProt Q6FI13)
inactive: [7] 0.46 | zotarolimus -0.048 | idasanutlin 0.584 | alisertib 0 | gefitinib -0.016 | [2] -0.125 | pictilisib -0.235 | crizotinib -0.195 | [4] -0.513 | [5] 0.517 | duvelisib 0.364 | gandotinib 0.119 | tozasertib 0.089 | [6] 0.31 | doramapimod 0.144 | ispinesib -0.053

HOMER2 (UniProt Q9NSB8)
inactive: zotarolimus 0.046 | idasanutlin -0.045 | alisertib -0.005 | [2] 0.059 | [4] -0.357 | [5] 0.088 | tozasertib -0.051

HOMER3 (UniProt Q9NSC5)
inactive: filanesib 0.046 | zotarolimus -0.01 | alisertib -0.034 | [2] 0.079 | [3] -0.031 | [5] -0.082

HP (UniProt P00738)
inactive: filanesib 0.085 | [3] 0.075

HOXB4 (UniProt P17483)
inactive: gefitinib 0.183 | [4] -0.117

ICE2 (UniProt Q659A1)
inactive: zotarolimus 0.055 | idasanutlin 0.042 | pictilisib -0.128 | [4] 0.052 | [5] 0.201 | gandotinib 0.136

HMGCS2 (UniProt P54868)
inactive: filanesib -0.147 | [3] 0.012

HMGN5 (UniProt Q5JSK9)
inactive: filanesib 0.064 | zotarolimus -0.12 | idasanutlin 0.013 | alisertib 0.003 | [1] 0.282 | [2] 0.182 | lapatinib -0.265 | pictilisib 0.319 | [3] 0.082 | [4] 0.15 | [5] 0.33 | duvelisib 0.146 | gandotinib -0.155 | tozasertib -0.088 | [6] -0.015 | ispinesib -0.255

HIGD2A (UniProt Q9BW72)
inactive: [7] -0.294 | crizotinib 0.086 | [4] 0.097 | doramapimod 0.006

ICOSLG isoform 2 (UniProt O75144)
inactive: alisertib -0.22 | [1] -0.11 | [2] 0.327 | lapatinib 0.033

HIF1AN (UniProt Q9NWT6)
inactive: [7] -0.044 | idasanutlin -0.093 | alisertib -0.131 | [1] 0.012 | gefitinib 0.034 | [2] -0.118 | lapatinib -0.029 | pictilisib 0.068 | crizotinib 0.158 | [4] -0.023 | duvelisib 0.024 | gandotinib -0.019 | tozasertib -0.052 | [6] 0.043 | doramapimod -0.002 | ispinesib 0.017

HSP90AA2P (UniProt Q14568)
inactive: tozasertib -0.064

ICA1 isoform 2 (UniProt Q05084)
inactive: [7] -0.098 | zotarolimus -0.062 | idasanutlin -0.007 | pictilisib 0.062 | crizotinib -0.092 | [4] 0.074 | [5] 0.054 | duvelisib -0.138 | gandotinib -0.101 | [6] 0.064 | doramapimod 0.085 | ispinesib 0.14

ID1 (UniProt P41134)
inactive: alisertib 0.634 | gefitinib -0.005 | [2] 0.069 | [4] 0.107 | duvelisib 0.038 | tozasertib 0.013 | [6] 0.332 | ispinesib -0.11

HOOK1 (UniProt Q9UJC3)
inactive: idasanutlin 0.069 | [1] 0.014 | lapatinib -0.058 | [4] -0.268 | duvelisib 0.074 | [6] -0.098

HOXD9 (UniProt P28356)
inactive: zotarolimus 0.265 | idasanutlin 0.133 | pictilisib -0.029 | [5] 0.006 | duvelisib 0.04 | gandotinib -0.113 | [6] 0.077

HSPBP1 (UniProt Q9NZL4)
inactive: [4] -0.05

HOOK2 (UniProt Q96ED9)
inactive: [7] -0.041 | zotarolimus -0.012 | [1] 0.299 | lapatinib -0.031 | crizotinib 0.038 | [4] -0.082 | [5] -0.074 | tozasertib -0.304 | doramapimod -0.053

HSPBAP1 (UniProt Q96EW2)
inactive: [7] -0.141 | zotarolimus -0.117 | idasanutlin 0.159 | crizotinib 0.077 | [5] 0.094 | doramapimod 0.089

HUWE1 isoform 2 (UniProt Q7Z6Z7)
inactive: filanesib 0.11 | zotarolimus 0.011 | idasanutlin -0.204 | [3] -0.344 | [5] -0.336 | duvelisib 0.007 | [6] 0.016

Two successive records out of the list so far, quoted:
ICE2 (UniProt Q659A1)
inactive: zotarolimus 0.055 | idasanutlin 0.042 | pictilisib -0.128 | [4] 0.052 | [5] 0.201 | gandotinib 0.136

HMGCS2 (UniProt P54868)
inactive: filanesib -0.147 | [3] 0.012
